Results: paper PMC7819943, “Rice protein-binding microarrays: a tool to detect cis-acting elements near promoter regions in rice”
The other results are listed elsewhere or left out.

Chains of the proteins cited; added tags and fusions are not shown.
UniProt Q0JBA9, entry or part of it: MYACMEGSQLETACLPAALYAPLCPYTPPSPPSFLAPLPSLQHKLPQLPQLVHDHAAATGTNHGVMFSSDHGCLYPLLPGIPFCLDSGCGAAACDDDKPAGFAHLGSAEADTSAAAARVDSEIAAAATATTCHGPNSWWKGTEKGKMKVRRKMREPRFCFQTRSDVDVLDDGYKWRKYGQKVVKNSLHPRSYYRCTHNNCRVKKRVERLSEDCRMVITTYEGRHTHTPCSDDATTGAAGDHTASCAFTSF

target: OsWRKY34 (Oryza sativa, UniProt Q0JBA9 1-250); assay: protein-binding microarray (RPBM); PBS, 2% BSA, 51.3 ng/ul salmon testes DNA, 50 uM zinc acetate, 200 nM TF, 25 C, 1 h; high values mean tight binding; conditions: protein: recombinant; tags: N-terminal polyhistidine and DsRed monomer fusion (pET32a); label: CyDye5-dUTP incorporated in the synthesized complementary strand; 3' TTTTT single-stranded linker to array surface; dsDNA, one strand shown
Method in brief: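 Ni–NTA purification followed expression in E. coli BL21-CodonPlus of transcription factors fused N-terminally to a polyhistidine tag and DsRed. At 200 nM in PBS with 2% BSA, salmon testes DNA and 50 µM zinc acetate, the protein was incubated for 1 h at 25 °C with a custom Agilent array that had been primer-extended with Cy5-dUTP and blocked with 2% BSA. After washing, the array was read on an Axon 4000B scanner. The binding signal is per-feature fluorescence intensity in arbitrary units.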

Row | Sequence | binding signal
1 | CCACGCCCACGCCCACGCCCACGCCCACGCCACGCGTCCCCGGAGTCACCTAGTGCAG | 9080 fluorescence intensity (a.u.)
2 | GGACATTTGGAACTGATTACTCCTACTACTCTAGTGAAAACGGAGTCACCTAGTGCAG | 8400 fluorescence intensity (a.u.)
3 | CAGAACGAGTCCACAGCCTTAACCGCCATGCAATGCACCACGGAGTCACCTAGTGCAG | 8590 fluorescence intensity (a.u.)
4 | ACCCAGCGCCGCCATTTTATTCGCTTCGTCAGAACTCAAACGGAGTCACCTAGTGCAG | 10100 fluorescence intensity (a.u.)
5 | GCGGTTTGTTCCGCCGCGTGCGCGTTTCAGCTCCTTTTTCCGGAGTCACCTAGTGCAG | 8640 fluorescence intensity (a.u.)
6 | GCTCACATTTCTTGGCCATTTCTTACCTTCCAAGCACCACCGGAGTCACCTAGTGCAG | 10800 fluorescence intensity (a.u.)
7 | TTTATAGATGGGGAAGGGGTGGCAACTAGAGACGCGACGGCGGAGTCACCTAGTGCAG | 9070 fluorescence intensity (a.u.)
8 | ATCTACTTTTCTTCCTTTTAGGTTCAACACAATGTTTGCTCGGAGTCACCTAGTGCAG | 8200 fluorescence intensity (a.u.)
9 | GCCCACATACTCACGGCCCACCGTATCCTATCGTGCCCTACGGAGTCACCTAGTGCAG | 10200 fluorescence intensity (a.u.)
10 | ATGGTCTTGATTTCGCAGTGTGTTAGTTGTTAGTTTTGAGCGGAGTCACCTAGTGCAG | 10900 fluorescence intensity (a.u.)
11 | GCACTTACGGGTGGTGATTGTAGTGTGCGTGTGTGTCTTTCGGAGTCACCTAGTGCAG | 9130 fluorescence intensity (a.u.)
12 | GGATGGCAGAAAGGGGAATTGGAAGTTGGTGTACCGTTGCCGGAGTCACCTAGTGCAG | 8300 fluorescence intensity (a.u.)
13 | GCGCTACTACTGCTCCAGCCACTTCATTCAACCCCGTCTTCGGAGTCACCTAGTGCAG | 9630 fluorescence intensity (a.u.)
14 | AACCACCCACCCAACCAGCCAGGCGGCCGGCCGCCACCGTCGGAGTCACCTAGTGCAG | 8870 fluorescence intensity (a.u.)
15 | CTGTCGCCACCATCCAAACCAAGTATCTCGTGCCTCGCAACGGAGTCACCTAGTGCAG | 8680 fluorescence intensity (a.u.)
16 | AGTTTCAGTTCAGTTCACCCCACATTTTCATGGCTCATCACGGAGTCACCTAGTGCAG | 11300 fluorescence intensity (a.u.)
17 | ATCAATCTATTAGAATACTTATTACTGTATCTACTTATGTCGGAGTCACCTAGTGCAG | 8690 fluorescence intensity (a.u.)
18 | ACTTAAGCTCCGCATAACCATCTCGCCGCCGGCCGAGCCGCGGAGTCACCTAGTGCAG | 8280 fluorescence intensity (a.u.)
19 | ACACAATTCACGTGCTCCCAACTTCCCAAGTCCACATCACCGGAGTCACCTAGTGCAG | 10200 fluorescence intensity (a.u.)
20 | GCTTGGCGTCTCTCCTTCCTGGACCGACCCTTTTATTTGTCGGAGTCACCTAGTGCAG | 10800 fluorescence intensity (a.u.)
21 | CTTCCTTAGTGTGTGTGTATATCTCTCTCTCTCTCTCTCACGGAGTCACCTAGTGCAG | 8110 fluorescence intensity (a.u.)
22 | ATGTGTTTGTGTGTCTCTGCCACGTTTCGAAAAAACAACTCGGAGTCACCTAGTGCAG | 9740 fluorescence intensity (a.u.)
23 | ACCCTGGTTTCCGTGTCCAACGTTTGACCATTCGTCTTATCGGAGTCACCTAGTGCAG | 12300 fluorescence intensity (a.u.)
24 | GCACGCCGTTGTTCATAGTGTTAAGCCTAAGGCCTTGTTTCGGAGTCACCTAGTGCAG | 9920 fluorescence intensity (a.u.)
25 | TTCCTCTGCCACTGCATCTCGTGCTCACTGGCCCGTTTGCCGGAGTCACCTAGTGCAG | 8780 fluorescence intensity (a.u.)
26 | GATCTCCCAGGGTTATAATCTTATGATTTTTTCCTGCTCTCGGAGTCACCTAGTGCAG | 8340 fluorescence intensity (a.u.)
27 | GGAGGTTTTGTCATTTGTGCGCGTGGGGATGCGCGAGTTTCGGAGTCACCTAGTGCAG | 11800 fluorescence intensity (a.u.)

For reference, some entries already given.
Row | Sequence | binding signal
16 | AGTTTCAGTTCAGTTCACCCCACATTTTCATGGCTCATCACGGAGTCACCTAGTGCAG | 11300 fluorescence intensity (a.u.)
17 | ATCAATCTATTAGAATACTTATTACTGTATCTACTTATGTCGGAGTCACCTAGTGCAG | 8690 fluorescence intensity (a.u.)
18 | ACTTAAGCTCCGCATAACCATCTCGCCGCCGGCCGAGCCGCGGAGTCACCTAGTGCAG | 8280 fluorescence intensity (a.u.)
19 | ACACAATTCACGTGCTCCCAACTTCCCAAGTCCACATCACCGGAGTCACCTAGTGCAG | 10200 fluorescence intensity (a.u.)

Later entries:

Row | Sequence | binding signal
28 | CAAAGCAACCACACCACTCTCTTTTTTAAGGTACCAATTACGGAGTCACCTAGTGCAG | 8040 fluorescence intensity (a.u.)
29 | CCACAACACGTTAGCACCTCATCGGCCCAATCTTGAAAGCCGGAGTCACCTAGTGCAG | 8620 fluorescence intensity (a.u.)
30 | ACACACTGTTCACCTTGCCCTCGCTGCCCCGGCAACTCACCGGAGTCACCTAGTGCAG | 8970 fluorescence intensity (a.u.)
31 | TCACACCCGTTCCATCCGTCGCGGTTGACCCCGCGCAGCACGGAGTCACCTAGTGCAG | 9740 fluorescence intensity (a.u.)
32 | ATGGACCGCGGCGGCGACCGCCTCTGCTACGTCCAGTTCCCGGAGTCACCTAGTGCAG | 8220 fluorescence intensity (a.u.)
33 | CCCCTACAATTTGTTGTTTCTTCTTACAAATTATACTACTCGGAGTCACCTAGTGCAG | 11300 fluorescence intensity (a.u.)
34 | ATTCCATTATTTATCTTGTTCTTCCATTCCAGGCCTCCAACGGAGTCACCTAGTGCAG | 8350 fluorescence intensity (a.u.)
35 | TGGAGTGGCTCACGTGCGCGGAGCGAGGCGTGGTTTGACCCGGAGTCACCTAGTGCAG | 8630 fluorescence intensity (a.u.)
36 | GCGGCGGGGCGGCGGGCGAGGGTTCTGGAGAGCGCGAGCGCGGAGTCACCTAGTGCAG | 11800 fluorescence intensity (a.u.)
37 | TTGCTCGCAAAACAAATACTGGCCATTAACCCGCAGCATCCGGAGTCACCTAGTGCAG | 8640 fluorescence intensity (a.u.)
38 | GACCCGCTTCCTCGCCACCGACTACTTCGCGCCGTCCTCCCGGAGTCACCTAGTGCAG | 15700 fluorescence intensity (a.u.)
39 | ACATGTGGGCCCTACATCCCAGCCGGTCCACGTCGGTTCACGGAGTCACCTAGTGCAG | 9390 fluorescence intensity (a.u.)
40 | TGTTCTCACTTTTTGCTTCAACACTTGCTTTTGTCACTTCCGGAGTCACCTAGTGCAG | 9430 fluorescence intensity (a.u.)
41 | CACCGTCTCCGCTCGCCGCGCGCTCCCGCCGCCGCGCAGCCGGAGTCACCTAGTGCAG | 8200 fluorescence intensity (a.u.)
42 | AGTTCCAGATCTCCCAAGTGCTCCACTACATATTCGTGCACGGAGTCACCTAGTGCAG | 9100 fluorescence intensity (a.u.)
43 | TAGATTTGTGTCTCTTTGCTTGGTATTGGTCACTCCATCGCGGAGTCACCTAGTGCAG | 11800 fluorescence intensity (a.u.)
44 | TCCATTTCATTGTTAGGTGTACTTTTATCACTGTCCATCTCGGAGTCACCTAGTGCAG | 9090 fluorescence intensity (a.u.)
45 | ACGCCATTGACTTTTTAGCAGATGTTTGACCGTTCGTTTTCGGAGTCACCTAGTGCAG | 20700 fluorescence intensity (a.u.)
46 | ACCAATCTATCCATCTACAATATTTAACCCATACATAAACCGGAGTCACCTAGTGCAG | 8140 fluorescence intensity (a.u.)
47 | CCTATATTATGCGTCCTGCAGATCTTCTCTAGTTTCCCAACGGAGTCACCTAGTGCAG | 8770 fluorescence intensity (a.u.)
48 | TTCCGTCGTGGTCATCATTCCAGTGAACTGTTTAGCTGTTCGGAGTCACCTAGTGCAG | 10200 fluorescence intensity (a.u.)
49 | TTAACCTCGCATTTCTGTACTACGCCCTAAGTTACATTCTCGGAGTCACCTAGTGCAG | 8620 fluorescence intensity (a.u.)
50 | CACACCTTTTTATATATATATACTCTTCTTTAGCCACAATCGGAGTCACCTAGTGCAG | 9600 fluorescence intensity (a.u.)
51 | TTCGGGGTGTTCGTCAAAAATGTGGGGAGGAGGCATGGATCGGAGTCACCTAGTGCAG | 13100 fluorescence intensity (a.u.)
52 | TGAAGCCGCCCCTTATTTTTTGGCTCATTTACACACGAGTCGGAGTCACCTAGTGCAG | 11000 fluorescence intensity (a.u.)
53 | CCAGGTGAGATGTGTGAGTGGGTTTTGGTGTGAAGGGGTCCGGAGTCACCTAGTGCAG | 8230 fluorescence intensity (a.u.)
54 | ATCGAGGAAGTCAAATGTGCACCGGTTTTAATAGTTGGGGCGGAGTCACCTAGTGCAG | 8640 fluorescence intensity (a.u.)
